Results published in US20180280393A1, “METHODS AND COMPOSITIONS FOR TREATMENT OF METASTATIC AND REFRACTORY CANCERS AND TUMORS” (The Wistar Institute of Anatomy and Biology, priority 2015, published 2018).

Assays:
[1] = test system: A2780 ovarian cancer cells; assay: Molecular screening of compounds on A2780 cell proliferation (resazurin fluorescence); assay type: cell-based; conditions: Homo sapiens, 72 h; A2780 cells cultured 3 days; N/A = ambiguous curve fits or EC50 greater than the highest concentration tested (25 μM); read-out: EC5 - A2780 ovarian cancer cells
Method: Cell proliferation assays—Cells were plated in 96-well plates. Compounds were added the next morning, and cell proliferation was measured 48 hrs later with the […] 96 MTS assay (Promega) according to the manufacturer's instructions. Molecular screening of compounds on A2780 cells was performed by adding compounds the morning after plating in 384-well plates and measuring proliferation 72 hrs later with resazurin fluorescence. Normalized percent inhibition (NPI) was calculated with respect to fluorescence values obtained with DMSO negative control and doxorubicin (5 μM) positive control as NPI=100%*(DMSO−compound)/(DMSO−doxorubicin). TCR ligation of human CD8 T cells
(§1) EC50 values were calculated from normalized percent inhibition data using non-linear curve fitting in PRISM software.

human T cells = assay: ConA-induced activation and expansion of human T cells (high-throughput screen); assay type: cell-based; conditions: T-cell, 168 h; human T cells activated with ConA for 7 days; N/A = ambiguous curve fits or EC50 greater than the highest concentration tested (25 μM)
Method: T cell stimulation—For human T cell proliferation assays, peripheral blood lymphocytes were obtained by leukapheresis/elutriation and Miltenyi bead-purified and K562 cells expressing human CD32 were generated as previously described^41. […] PBMCs were labeled with CELLTRACE Violet stain (Invitrogen) according to the manufacturer's instructions and cocultured with loaded K32 cells at a 10:1 T cells:K32 ratio or activated with ConA (2 μg/ml, Sigma). Proliferation of stimulated T cells was determined 7 days later by FACS and Division Index was calculated using FlowJo software.
as §1

EC50 [1] [µM]	EC50 (human T cells) [µM]	SMILES
2.94	0.00273	CCc1cnn2c(NCc3ccc[n+]([O-])c3)cc(N3CCCC[C@H]3CCO)nc12 [SCH727965]
20.8		Cc1ccc(NC(=O)c2ccc(CN3CCN(C)CC3)cc2)cc1Nc1nccc(-c2cccnc2)n1 [STI571 (imatinib), imatinib]
